Data published in article PMC10164577.
For at least one entry, the source does not settle the construct or the ends of the probe.

Test system: CAF-1 (Cac1-Cac2-Cac3)
Experiment: EMSA
Conditions: 10-fold weaker binding than longer DNA, Hill coefficient fixed at 1; EMSA: 25 mM Tris pH 7.5, 150 mM NaCl, 1 mM EDTA, 0.02% Tween-20, 1 mM TCEP, 50 nM DNA, 6% PAGE; recombinant protein; label: 5' Alexa Fluor 647 on forward …

## GTCTACGAGCAATTGAGC (double strand) [18 bp DNA]
  Kd: > 2000 nM
